This passage reports binding results from patent publication US20130302399A1.

Protein sequences, listed by entry. Tags and fused reporters are not part of them. Lines headed by an entry give the natural chain unless they say otherwise; changes in a name come on top.
UniProt Q8NBP7: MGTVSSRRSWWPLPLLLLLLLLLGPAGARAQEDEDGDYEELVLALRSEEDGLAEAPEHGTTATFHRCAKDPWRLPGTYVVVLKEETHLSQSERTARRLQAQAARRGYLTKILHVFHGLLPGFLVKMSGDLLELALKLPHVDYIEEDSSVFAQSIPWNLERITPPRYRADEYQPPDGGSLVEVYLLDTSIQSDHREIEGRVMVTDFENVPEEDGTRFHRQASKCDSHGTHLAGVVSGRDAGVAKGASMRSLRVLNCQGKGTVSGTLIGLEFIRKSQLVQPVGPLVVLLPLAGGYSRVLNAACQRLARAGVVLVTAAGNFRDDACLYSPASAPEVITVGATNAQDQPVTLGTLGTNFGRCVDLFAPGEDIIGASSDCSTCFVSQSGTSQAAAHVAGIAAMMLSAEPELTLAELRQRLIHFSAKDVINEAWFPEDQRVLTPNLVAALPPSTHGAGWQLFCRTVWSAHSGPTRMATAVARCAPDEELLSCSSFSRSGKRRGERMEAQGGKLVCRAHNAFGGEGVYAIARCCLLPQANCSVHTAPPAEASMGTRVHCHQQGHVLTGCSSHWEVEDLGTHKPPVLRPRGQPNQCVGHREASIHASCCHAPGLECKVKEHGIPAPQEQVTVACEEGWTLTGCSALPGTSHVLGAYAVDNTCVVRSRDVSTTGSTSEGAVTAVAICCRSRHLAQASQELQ

Substitutions are numbered along the chain they refer to. Results are given in words; binding and its absence hold for the method and conditions named. Some results given as binding are weak or reduced against the parent protein; the word gives no strength.

B1: Ab22 (antibody, human IgG1, kappa, N297A, V domains shown)
VH: EVQLVESGGGLVQPGGSLRLSCAASGFSLSSYAMNWVRQAPGKGLEWIGAIRSSGATFFASSVNGRFTISRDNSKNTVYLQMNSLRAEDTAVYYCARDTNDGWYINRLDLWGQGTLVTVSS
VL: AVLTQSPSTLSASVGDRVTITCQSSKSVYSNYLSWFQQKPGKAPKFLIYKASTLASGVPSRFSGSGSGTEFTLTISSLQPDDFATYYCAGGDTNIADNAFGGGTKVEIKR
B2: Ab5 (antibody, human IgG1, kappa, N297A, V domains shown)
VH: QSVEESGGRLVTPGTPLTLTCTVSGFSLSSYAMSWVRQAPGKGLEWIGIISNSGTTYYASWAKGRFTISKTSTTVDLKITSPTTEDTATYFCARGIYWYWRVFNLWGPGTLVTVSS
VL: AVLTQTPSPVSAAVGGTVTINCQASQSVYNNLLSWYQQKPGQPPKLLIYDASNLASGVPDRFSGSGSGTQFTLTISGVQCDDAATYYCLGGYDDDADNAFGGGTEVVVKR
B3: Ab19 (antibody, human IgG1, kappa, N297A, V domains shown)
VH: EVQLVESGGGLVQPGGSLRLSCAASGIDLSSYAMGWVRQAPGKGLEYIGIIVSYGPTYYASWAKGRFTISRDNSKNTVYLQMNSLRAEDTATYFCARDLDAQSSGYYGAFNIWGQGTLVTVSS
VL: DIQMTQSPSTLSASVGDRVTITCQASQSISTALAWYQQKPGKAPKLLIYAASPLASGVPSRFSGSGSGTEFTLTISSLQPDDFATYYCQSYYGSSNIAFGGGTKVEIKR
B4: Ab20 (antibody, human IgG1, kappa, N297A, V domains shown)
VH: B3 VH with N76S
VL: B3 VL
B5: Ab21 (antibody, human IgG1, kappa, N297A, V domains shown)
VH: QSVEESGGRLVTPGTPLTLTCTVSGFSLSSYAMNWVRQAPGKGLEWIGAIRSSGATFFASWVNGRFTISKTSTTVDLKITSPTPEDTATYFCARDTNDGWYINRLDLWGPGTLVTVSS
VL: AAVLTQTPSPVSAAVGGTVSISCQSSKSVYSNYLSWFQQKPGQPPKFLIYKASTLASGVPSRFKGSGSGTQFTLTISDVQCDDAATYYCAGGDTNISDNAFGGGTEVVVKR
B6: Ab1 (antibody, human IgG1, kappa, N297A, V domains shown)
VH: QSVEESGGRLVTPGTPLTLTCTVSGFSLSSYWMTWVRQAPGKGLEYIGIISSSGSTYYATWAKGRFTISKTSSTTVDLEITSPTTEDTATYFCARDSAFSSGLEFNIWGPGTLVTVSS
VL: AYDLTQTPASVEVAVGGTVTIKCQASQSVYSNWLSWYQQKPGQPPKLLIYDASDLASGVPSRFKGSGSGTQFTLTISGVQCDDAATYYCQQGQSSSDIDNTFGGGTEVVVKR
B7: Ab6 (antibody, human IgG1, kappa, N297A, V domains shown)
VH: QEQLEESGGDLVKPEGSLTLTCTASGFSFSSNYWICWVRQAPGKGLEWIGCIRDGGGTYYASWAKGRLTISMTSSTTVTLQLNSLTAADTATYFCASDINDGWLGQFNLWGPGTLVTVSS
VL: DIVMTQTPASVEVAVGGTVTIKCQASQSISAYLAWYQQKPGQPPKLLIYRAYTLASGVPSRFKGSGSGTQFTLTISDLECADAATYYCQSYYSVTTNTYGNTFGGGTEVVVKR
B8: Ab16 (antibody, human IgG1, kappa, N297A, V domains shown)
VH: B7 VH with E5V, D10G, K13Q, N32D, T58S, S62N, T79G, Q81K, L82M, N83T
VL: B7 VL with V13A, A31S, Y52S, K63S, Q70E, N97V
B9: Ab10 (antibody, human IgG1, kappa, N297A, V domains shown)
VH: B7 VH with N32S, G50A, D54A, T58N, S62N, L68F, M72R, L82M, N83T
VL: B7 VL with D1N, V13A, A31N, A51T, Y52S, N97V, T98A
B10: Ab17 (antibody, human IgG1, kappa, N297A, V domains shown)
VH: QEQLEESGGDLVKPEGSLTLTCTASGFSFSSSYWICWVRQAPGKGLEWIGCIRPGSADYYASWAKGRFTISRASSSTVTLQMTSLTAADTATYFCASDINDGWLGQFNLWGPGTLVTVSS
VL: B7 VL with I2V, V13A, Q27L, S30A, A31D, Q37L, Y52S, Q70E, F71Y
B11: Ab14 (antibody, human IgG1, kappa, N297A, V domains shown)
VH: QEQLEESGGDLVKPEGSLTLTCTGSGFSFSSIAYMCWIRQAPGKGLEWIGCIGSGSGNTYYANWAKGRFTISKSSSTTVTLQMTSLTAADTATYFCASDTNNGWLGQFNLWGQGTLVTVSS
VL: B7 VL with E12S, V13A, K22N, A31S, Y52S, S90G
B12: Ab15 (antibody, human IgG1, kappa, N297A, V domains shown)
VH: QEQLEESGGDLVKPEGSLTLTCTASGFSFSSSYWICWVRQAPGKGLEWIACIDAGNSGSTYYASWAKGRFTISKASSTTVTLQMTSLTAADTATYFCASDLNDGWLGQFNLWGPGTLVTVSS
VL: NIVMTQTPSPVSGAVGGTVTIKCQASQSISDYLAWYQQKPGQPPKLLIYRASTLASGVPSRFRGSGSGTEYTLTITDLECADAATYYCQSYYSVTTNTYGNTFGGGTEVVVKR
B13: Ab4 (antibody, human IgG1, kappa, N297A, V domains shown)
VH: QSVEESGGRLVTPGTPLTLTCTVSGIDLSSYAMIWVRQAPEKGLEYIGYIGGIDSTYYASWAKGRFTISKTSTTVDLKMTSPTTEDTATYFCGRWSGTSGYNTIWGPGTLVTVSS
VL: DVVMTQTPASVEAAVGGTVTIKCQASQSIYSNLAWYQQKPGQPPKLLIYGASNLASGVSSRFKGSRSGTEYTLTISDLECADAATYYCQCTGGGDSGNTFGGGTEVVVKR
B14: Ab3 (antibody, human IgG1, kappa, N297A, V domains shown)
VH: QSVEESGGRLVTPGGSLTLTCTASGFSLSSYYMSWVRQAPGKGLEWIGIIYPSGSTYYASWAKGRFTISKTSTTVDLKITSPTVEDTATYFCARGGAYATLNLWGPGTLVTVSS
VL: AVLTQTPSPVSAAVGGTVTISCQSSQSVYHNNLLSWYQQKPGQPPKLLIYDASKLTSGVSSRFSGSGSGTQFTLTISGVQCDDAATYYCLGGYDDDADNGFGGGTEVVVKR
B15: Ab13 (antibody, human IgG1, kappa, N297A, V domains shown)
VH: QSVEESGGRLVTPGTPLTLTCTVSGIDLSTYGVGWVRQAPGKGLEYIGIISSSGSTYYASWAKGRFTISKTSSTTVDLKMTSLTTEDTATYFCARDWSSTTGYYGYFNMWGPGTLVTVSS
VL: AFELTQTPSPVSAAVGGTVTIKCQASQSISTALAWYQQKPGQPPKLLIYGASNLESGVPSRFSGSGSGTQFTLTISDLECADAAIYYCQSSYGSSTLAFGGGTEVVVKR
B16: Ab2 (antibody, human IgG1, kappa, N297A, V domains shown)
VH: QSVEESGGRLVTPGTPLTLTCTVSGFSLSSYAMSWVRQAPGKGLEWIGIIDAIDNTYYASWAKGRFTISKTSTTVDLKMTSLTTGDTATYFCARASILGYSIATGFNIWGPGTLVTVSS
VL: AYDMTQTPASVEVAVGGTVTIKCQASQSISSHLAWYQQKSGQPPKLLIYRASTLESGVSSRFKGSGSGTEFTLTISDLECADAATYYCQQGYGVSDVDNGFGGGTEVVVKR
B17: Ab23 (antibody, human IgG1, kappa, N297A, V domains shown)
VH: QSLEESGGDLVKPGASLTLTCKASGFSFSSGYYMCWVRQAPGKGLEWIACIYAGSGGSTFFANWAKGRFTISKTSSTTVTLQMTSLTAADTATYFCARDGGYAGYGYAFFNLWGPGTLVTVSS
VL: DVVMTQTPASVSEPVGGTVTIKCQASERIYSGLAWYQQKPGQPPKLLIYGASTLASGVPSRFKGSGSGTDFTLTISDLECDDAAIYYCQCTYYGSSYPNVFGGGTEVVVKR
B18: Ab24 (antibody, human IgG1, kappa, N297A, V domains shown)
VH: B17 VH
VL: B17 VL with C90A
B19: Ab9 (antibody, human IgG1, kappa, N297A, V domains shown)
VH: QSVEESGGRLVTPGTPLTLTCTVSGIDLSSYAMGWVRQAPGKGLEYIGIIVSYGPTYYASWAKGRFTISKTSTTVDLKITSPTAEDTATYFCARDLDANSSGYYGCFNIWGQGTLVTVSS
VL: AVVLTQTPASVSAAVGGTVTIKCQASQSISTALAWYQQKPGQPPKLLIYAASPLASGVSSRFKSSGSGTEFTLTISDLECADAATYYCQSYYGSSNIAFGGGTELEILR
B20: Ab8 (antibody, human IgG1, kappa, N297A, V domains shown)
VH: QEQLVESGGGLVQPEGSLTLTCTASGFSFTSDYYMCWVRQAPGKGLEWIGCISTGDGSTYYASWAKGRFTISKPSSTTVTLQMTRLTAADTATYFCARDRYYSYAYGAYVYASDLWGPGTLVTVSS
VL: DIVMTQTPASVSEPVGGTVTINCQASESIRNYLSWYQQKPGQRPKLLIYGASTLASGVPSRFKGSGSGTDFTLTISDLECADAATYYCQSNYGISSRSYVNGFGGGTEVVVKR

In this test the target is human Proprotein Convertase Subtilisin-like/Kexin type 9 (human) (UniProt Q8NBP7). As to the kind of experiment: ELISA, biotinylated human PCSK9 on neutravidin plates, antibody dilution series.
B1: the binding entry is “binds”.

For B2, the binding result is reported as “binds”.

With B3, the binding entry is given as “binds”.

Consider B4, for which the binding entry is on record as “binds”.

With B5, the binding result is listed as “binds”.

Consider B6, for which the binding entry is “binds”.

With B7, the binding entry is “binds”.

With B8, the binding result is “binds”.

For the molecule B9, the binding entry was “binds”.

In the case of B10, the binding entry is on record as “binds”.

Turning to B11, the binding result is listed as “binds”.

On to B12, for which the binding result was “binds”.

For B13, the binding entry is given as “binds”.

Consider B14, for which the binding result is listed as “binds”.

On to B15, for which the binding entry was “binds”.

As to B16, the binding entry was “binds”.

Consider B17, for which the binding result was “binds”.

Take B18: the binding result is recorded as “binds”.

Consider B19, for which the binding result is “binds”.

For the molecule B20, the binding entry is listed as “binds”.
